Source: US20100183640A1

Sequences of proteins named here, by UniProt entry; tags and fusion partners are left off. A change or cut given only in a name is not applied to a line headed by its entry.
UniProt P02751: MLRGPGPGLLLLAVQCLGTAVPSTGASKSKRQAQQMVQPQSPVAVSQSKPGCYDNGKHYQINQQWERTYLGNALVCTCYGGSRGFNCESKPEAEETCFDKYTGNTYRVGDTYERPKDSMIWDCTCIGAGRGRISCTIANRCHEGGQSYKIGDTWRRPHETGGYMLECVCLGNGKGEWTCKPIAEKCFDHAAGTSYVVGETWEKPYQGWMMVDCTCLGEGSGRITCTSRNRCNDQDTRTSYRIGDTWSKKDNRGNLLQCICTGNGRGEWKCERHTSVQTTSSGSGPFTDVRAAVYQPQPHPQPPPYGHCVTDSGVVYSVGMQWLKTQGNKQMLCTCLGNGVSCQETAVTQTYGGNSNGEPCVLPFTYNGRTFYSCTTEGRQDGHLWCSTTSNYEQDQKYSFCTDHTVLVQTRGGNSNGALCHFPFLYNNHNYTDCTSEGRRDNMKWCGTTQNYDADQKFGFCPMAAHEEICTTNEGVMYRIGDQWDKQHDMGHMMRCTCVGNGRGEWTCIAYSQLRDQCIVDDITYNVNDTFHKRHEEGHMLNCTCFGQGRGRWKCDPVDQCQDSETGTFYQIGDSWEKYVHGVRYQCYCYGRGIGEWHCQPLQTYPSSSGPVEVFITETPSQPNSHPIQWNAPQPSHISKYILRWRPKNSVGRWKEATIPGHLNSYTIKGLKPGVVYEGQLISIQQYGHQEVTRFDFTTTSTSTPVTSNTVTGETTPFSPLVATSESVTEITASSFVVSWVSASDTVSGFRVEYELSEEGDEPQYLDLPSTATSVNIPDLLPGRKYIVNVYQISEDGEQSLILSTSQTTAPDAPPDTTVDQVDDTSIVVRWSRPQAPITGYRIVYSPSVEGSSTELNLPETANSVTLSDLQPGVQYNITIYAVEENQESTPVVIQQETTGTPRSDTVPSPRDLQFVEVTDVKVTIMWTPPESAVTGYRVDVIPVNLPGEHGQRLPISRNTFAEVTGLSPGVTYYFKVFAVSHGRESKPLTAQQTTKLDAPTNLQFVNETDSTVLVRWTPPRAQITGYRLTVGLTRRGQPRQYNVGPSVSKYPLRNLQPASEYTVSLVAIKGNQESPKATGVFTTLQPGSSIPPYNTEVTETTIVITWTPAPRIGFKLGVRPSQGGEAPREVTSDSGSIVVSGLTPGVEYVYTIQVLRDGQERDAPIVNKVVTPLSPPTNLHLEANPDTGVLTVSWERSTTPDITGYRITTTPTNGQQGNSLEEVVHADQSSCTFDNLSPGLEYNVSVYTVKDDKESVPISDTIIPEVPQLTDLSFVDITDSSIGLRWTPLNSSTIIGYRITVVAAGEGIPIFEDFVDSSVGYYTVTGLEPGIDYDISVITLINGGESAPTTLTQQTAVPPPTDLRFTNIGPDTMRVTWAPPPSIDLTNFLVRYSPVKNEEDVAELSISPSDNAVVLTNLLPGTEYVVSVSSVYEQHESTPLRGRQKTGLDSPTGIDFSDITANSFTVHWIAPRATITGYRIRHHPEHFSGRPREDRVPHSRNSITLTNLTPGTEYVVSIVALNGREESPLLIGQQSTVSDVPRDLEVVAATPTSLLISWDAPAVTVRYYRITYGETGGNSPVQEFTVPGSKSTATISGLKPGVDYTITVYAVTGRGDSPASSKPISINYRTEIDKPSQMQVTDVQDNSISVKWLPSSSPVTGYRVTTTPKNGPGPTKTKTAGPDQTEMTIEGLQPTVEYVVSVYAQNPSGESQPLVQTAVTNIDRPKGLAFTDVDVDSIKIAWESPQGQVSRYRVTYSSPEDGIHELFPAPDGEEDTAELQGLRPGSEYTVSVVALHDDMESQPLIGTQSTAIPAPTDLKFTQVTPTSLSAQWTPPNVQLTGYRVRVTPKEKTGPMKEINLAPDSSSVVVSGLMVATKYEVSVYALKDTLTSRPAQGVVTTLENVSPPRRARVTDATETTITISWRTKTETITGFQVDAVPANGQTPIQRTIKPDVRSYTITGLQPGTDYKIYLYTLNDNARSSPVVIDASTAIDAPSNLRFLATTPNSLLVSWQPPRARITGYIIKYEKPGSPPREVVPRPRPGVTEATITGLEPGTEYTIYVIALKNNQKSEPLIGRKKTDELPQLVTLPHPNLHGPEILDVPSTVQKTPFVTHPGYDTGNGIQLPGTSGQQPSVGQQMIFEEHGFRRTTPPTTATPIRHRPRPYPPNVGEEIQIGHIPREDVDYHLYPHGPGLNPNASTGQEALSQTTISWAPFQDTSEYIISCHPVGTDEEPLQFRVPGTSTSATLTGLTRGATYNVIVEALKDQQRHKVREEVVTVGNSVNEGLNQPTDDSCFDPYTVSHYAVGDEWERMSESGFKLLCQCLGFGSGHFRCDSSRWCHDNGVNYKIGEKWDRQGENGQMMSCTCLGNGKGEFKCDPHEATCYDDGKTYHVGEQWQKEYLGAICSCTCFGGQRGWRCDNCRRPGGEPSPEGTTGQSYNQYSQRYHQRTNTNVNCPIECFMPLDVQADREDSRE

Experiments:
[1] = molecular target: purified human fibronectin (hFn), from human plasma (human) (UniProt P02751); assay: ELISA, coated fibronectin
[2] = molecular target: purified human fibronectin (hFn), from human plasma (human) (UniProt P02751); assay: ELISA, coated fibronectin species

B1: recombinant human uteroglobin (ligand)
chain: EICPSFQRVIETLLMDTPSSYEAAMELFSPDQDMREAGAQLKKLVDTLPQKPRESIIKLMEKIAQSSLCN
binding [1]: binds
binding [2]: binds

Results are given in words; binding and its absence hold for the method and conditions named. Binding calls can cover weak binding; strength is not graded here.
